Source: PubChem BioAssay AID686938 (Drosophila RNAi Screening Center, 2013)
The deposit covers about 23,000 reagents; this is an unselected part of those that have a named target and a result. Over the whole deposit, 75 (0.33%) were called active. 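Raw plate signals without normalisation; calls rest on plate z-scores that were not deposited; ratio present for only 364 wells.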 Unmarked entries are inactive. The numbers tell different reagents against one gene apart. Names joined by + are all predicted targets of the reagent. Not given: the dose of the treatment.

Screen: 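Looking for CRAC channel components and the factors controlling them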 (primary screen)
Cells: Drosophila S2R+ cells
Reagent: long dsRNA against Drosophila genes, about 0.25 µg dsRNA per well, roughly 10,000 cells
Timing: 5 days of knock-down before the calcium assay
Challenge: thapsigargin (SERCA pump blocker) to empty calcium stores; entry signal taken 4 min after adding it
Read-out: 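Per-well fluo-4 fluorescence in two replicates, unnormalised, measured in resting cells and 4 min after store depletion by the SERCA blocker thapsigargin; ratio of the two present in few wells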
Scale: calcium entry signal: higher = stronger calcium signal after store depletion; entry to resting ratio: higher = more calcium entry relative to resting level; resting calcium signal: higher = higher resting calcium signal
Call rule: 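Called when the plate z-score of the entry-to-rest ratio, mean of duplicates, falls below −3; wells with low overall dye signal (Fmax z below −2) or more than five off-targets excluded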
Meaning of the calls: active = strongly reduced calcium entry; inactive = no strong reduction

no.	gene knocked down	dsRNA no.	calcium entry signal, replicate 1 (fluorescence units)	calcium entry signal, replicate 2 (fluorescence units)	entry to resting ratio	resting calcium signal, replicate 1 (fluorescence units)	resting calcium signal, replicate 2 (fluorescence units)
1	CG4660 (GeneID 31542)	1	3.21e7	4.38e7		1.58e7	1.92e7
2	exp (GeneID 36276)	1	3.57e7	3.62e7		2.29e7	2.40e7
3	CG12259 (GeneID 43347)	1	3.14e7	4.52e7		1.72e7	2.00e7
4	CG12259 (GeneID 43347)	2	4.85e7	4.44e7		2.58e7	1.84e7
5	CG32301 (GeneID 38285)	1	3.25e7	4.14e7		1.71e7	1.88e7
6	Pvf2 (GeneID 33994)	1	4.37e7	2.90e7		2.35e7	1.82e7
7	Pvf2 (GeneID 33994)	2	3.67e7	3.68e7		2.10e7	2.06e7
8	CG9948 (GeneID 38757)	1	4.77e7	3.16e7		3.05e7	1.34e7
9	asRNA:CR43299 + CG8119	1	2.99e7	3.62e7		1.61e7	1.55e7
10	Rabex-5 (GeneID 38144)	1	3.35e7	2.99e7		1.55e7	1.40e7
11	CG12341 (GeneID 36137)	1	4.43e7	1.91e7		1.96e7	1.60e7
12	CG32026 (GeneID 317829)	1	3.68e7	5.72e7		2.15e7	2.59e7
13	upd1 (GeneID 32813)	1	4.26e7	3.58e7		2.17e7	1.63e7
14	Blm + CG14721	1	3.41e7	3.62e7		1.87e7	2.03e7
15	Cp18 (GeneID 38998)	1	3.15e7	4.93e7		1.56e7	2.31e7
16	CG30184 (GeneID 246506)	1	3.12e7	7.72e7		1.63e7	3.40e7
17	CG18682 (retired record) (GeneID 50098)	1	3.52e7	6.44e7		1.77e7	2.36e7
18	CG18682 (retired record) (GeneID 50098)	2	3.10e7	4.09e7		1.58e7	1.95e7
19	Pdss2 (GeneID 40323)	1	3.48e7	4.57e7		1.72e7	3.25e7
20	CG12219 (GeneID 31572)	1	2.09e7	3.86e7		1.12e7	1.67e7
21	CG32631 (GeneID 32311)	1	4.04e7	4.44e7		1.77e7	1.94e7
22	adp (GeneID 37073)	1	3.39e7	4.35e7		1.59e7	2.76e7
23	Ir56a (GeneID 246471)	1	3.55e7	3.63e7		1.72e7	1.97e7
24	CG13010 (GeneID 32643)	1	2.60e7	3.17e7		1.42e7	1.44e7
25	RpL36A (GeneID 34098)	1	2.17e7	1.87e7		1.34e7	1.19e7
26	corolla (GeneID 32739)	1	4.31e7	4.45e7		2.02e7	2.03e7
27	ND-B17 (GeneID 34925)	1	4.71e7	3.46e7		2.01e7	1.67e7
28	CG14631 (GeneID 31049)	1	3.60e7	5.43e7	2	1.79e7	2.34e7
29	CG14631 (GeneID 31049)	2	3.27e7	4.82e7	2	1.61e7	2.13e7
30	Nup93-1 (GeneID 32350)	1	1.95e7	2.38e7		1.10e7	1.25e7
31	CG1468 (GeneID 31920)	1	4.41e7	4.11e7		1.83e7	1.70e7
32	Pgant6 (GeneID 38346)	1	3.81e7	3.88e7		1.98e7	2.07e7
33	tos (GeneID 35119)	1	4.45e7			2.12e7	
34	Prosbeta4R1 (GeneID 33449)	1	3.54e7	3.53e7		1.74e7	1.74e7
35	eIF3d1 (GeneID 42789)	1	1.96e7 (active)	1.41e7		1.34e7	1.04e7
36	CG33155 + mRpL53	1	5.36e7	6.71e7		2.36e7	2.34e7
37	GluRIIA (GeneID 33788)	1	2.52e7	2.57e7		1.25e7	1.27e7
38	Acsx1L (GeneID 42351)	1	4.65e7	4.34e7		6.11e7	2.08e7
39	Bet3 (GeneID 39090)	1	2.44e7	2.74e7		1.34e7	1.32e7
40	CG17999 (GeneID 37357)	1	3.99e7			2.03e7	
41	CG13722 (GeneID 38555)	1	2.17e7	3.36e7		1.16e7	1.50e7
42	CG13722 (GeneID 38555)	2	4.60e7	3.13e7		1.91e7	1.49e7
43	CG32551 (GeneID 318085)	1	4.19e7	4.26e7		1.89e7	1.69e7
44	Ars2 (GeneID 35539)	1	3.92e7			2.03e7	
45	ric8a (GeneID 31874)	1	3.69e7	3.93e7		1.78e7	1.72e7
46	CG42821 (GeneID 3885579)	1	3.58e7	2.22e7		1.67e7	1.12e7
47	CG12448 (GeneID 34942)	1	4.53e7	3.19e7		1.96e7	1.45e7
48	Alp6 (GeneID 35981)	1	3.39e7	2.76e7		1.40e7	1.28e7
49	stw (GeneID 35494)	1	3.59e7	4.33e7		1.88e7	1.90e7
50	stw (GeneID 35494)	2	3.47e7	3.99e7		1.86e7	1.84e7
51	stw (GeneID 35494)	3	3.20e7	2.89e7		1.64e7	1.22e7
52	PIP4K (GeneID 3885565)	1	5.00e7	5.71e7	2.1	2.39e7	2.53e7
53	Cyp6w1 (GeneID 35543)	1	3.89e7			1.93e7	
54	eIF3e (GeneID 39877)	1	2.11e7	3.30e7		1.54e7	2.20e7
55	Awh (GeneID 38451)	1	3.61e7	4.43e7		1.94e7	1.90e7
56	CG10459 (GeneID 36000)	1	4.26e7	3.49e7		1.98e7	1.57e7
57	CG10459 (GeneID 36000)	2	3.62e7	3.80e7		1.70e7	2.16e7
58	Dref (GeneID 34328)	1	3.28e7			1.94e7	

4 successive records from above, for reference:
no.	gene knocked down	dsRNA no.	calcium entry signal, replicate 1 (fluorescence units)	calcium entry signal, replicate 2 (fluorescence units)	entry to resting ratio	resting calcium signal, replicate 1 (fluorescence units)	resting calcium signal, replicate 2 (fluorescence units)
13	upd1 (GeneID 32813)	1	4.26e7	3.58e7		2.17e7	1.63e7
14	Blm + CG14721	1	3.41e7	3.62e7		1.87e7	2.03e7
15	Cp18 (GeneID 38998)	1	3.15e7	4.93e7		1.56e7	2.31e7
16	CG30184 (GeneID 246506)	1	3.12e7	7.72e7		1.63e7	3.40e7
